Data taken from the supplement of paper PMC10849652.
The list shows a part of the results.

By UniProt entry, the sequences of proteins in these tests, tags left out. Where a name states a change or a piece, a line headed by the entry shows the natural chain unless it says otherwise.
UniProt Q9BT40: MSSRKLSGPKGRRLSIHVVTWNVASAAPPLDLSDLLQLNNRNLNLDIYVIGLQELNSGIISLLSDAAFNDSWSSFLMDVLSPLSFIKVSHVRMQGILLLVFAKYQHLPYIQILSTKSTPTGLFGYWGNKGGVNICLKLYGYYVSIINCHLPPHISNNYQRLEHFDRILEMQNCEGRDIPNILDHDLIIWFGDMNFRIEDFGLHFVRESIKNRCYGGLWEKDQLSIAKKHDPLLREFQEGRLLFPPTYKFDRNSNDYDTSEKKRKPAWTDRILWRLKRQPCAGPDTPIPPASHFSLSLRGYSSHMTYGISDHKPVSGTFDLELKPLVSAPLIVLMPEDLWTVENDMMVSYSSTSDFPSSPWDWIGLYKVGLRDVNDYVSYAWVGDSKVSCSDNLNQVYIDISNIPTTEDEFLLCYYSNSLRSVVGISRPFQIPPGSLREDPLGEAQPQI
UniProt Q969P0: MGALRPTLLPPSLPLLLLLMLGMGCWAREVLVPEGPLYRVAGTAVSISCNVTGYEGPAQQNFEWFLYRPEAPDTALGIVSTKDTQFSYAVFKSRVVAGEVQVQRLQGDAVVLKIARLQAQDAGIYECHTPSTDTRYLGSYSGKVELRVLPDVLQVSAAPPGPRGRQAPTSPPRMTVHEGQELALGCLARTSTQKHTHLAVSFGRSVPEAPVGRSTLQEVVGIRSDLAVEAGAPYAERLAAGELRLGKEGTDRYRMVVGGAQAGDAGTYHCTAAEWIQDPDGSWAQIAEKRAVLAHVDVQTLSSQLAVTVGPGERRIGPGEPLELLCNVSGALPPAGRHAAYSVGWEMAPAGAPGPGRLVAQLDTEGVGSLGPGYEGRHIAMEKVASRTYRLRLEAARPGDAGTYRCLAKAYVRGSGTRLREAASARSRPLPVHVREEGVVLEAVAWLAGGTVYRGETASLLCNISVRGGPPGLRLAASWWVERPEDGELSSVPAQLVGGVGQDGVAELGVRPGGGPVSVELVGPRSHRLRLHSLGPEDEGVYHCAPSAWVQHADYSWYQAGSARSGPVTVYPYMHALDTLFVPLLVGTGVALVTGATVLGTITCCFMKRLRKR
UniProt O15397, whole entry, looked up: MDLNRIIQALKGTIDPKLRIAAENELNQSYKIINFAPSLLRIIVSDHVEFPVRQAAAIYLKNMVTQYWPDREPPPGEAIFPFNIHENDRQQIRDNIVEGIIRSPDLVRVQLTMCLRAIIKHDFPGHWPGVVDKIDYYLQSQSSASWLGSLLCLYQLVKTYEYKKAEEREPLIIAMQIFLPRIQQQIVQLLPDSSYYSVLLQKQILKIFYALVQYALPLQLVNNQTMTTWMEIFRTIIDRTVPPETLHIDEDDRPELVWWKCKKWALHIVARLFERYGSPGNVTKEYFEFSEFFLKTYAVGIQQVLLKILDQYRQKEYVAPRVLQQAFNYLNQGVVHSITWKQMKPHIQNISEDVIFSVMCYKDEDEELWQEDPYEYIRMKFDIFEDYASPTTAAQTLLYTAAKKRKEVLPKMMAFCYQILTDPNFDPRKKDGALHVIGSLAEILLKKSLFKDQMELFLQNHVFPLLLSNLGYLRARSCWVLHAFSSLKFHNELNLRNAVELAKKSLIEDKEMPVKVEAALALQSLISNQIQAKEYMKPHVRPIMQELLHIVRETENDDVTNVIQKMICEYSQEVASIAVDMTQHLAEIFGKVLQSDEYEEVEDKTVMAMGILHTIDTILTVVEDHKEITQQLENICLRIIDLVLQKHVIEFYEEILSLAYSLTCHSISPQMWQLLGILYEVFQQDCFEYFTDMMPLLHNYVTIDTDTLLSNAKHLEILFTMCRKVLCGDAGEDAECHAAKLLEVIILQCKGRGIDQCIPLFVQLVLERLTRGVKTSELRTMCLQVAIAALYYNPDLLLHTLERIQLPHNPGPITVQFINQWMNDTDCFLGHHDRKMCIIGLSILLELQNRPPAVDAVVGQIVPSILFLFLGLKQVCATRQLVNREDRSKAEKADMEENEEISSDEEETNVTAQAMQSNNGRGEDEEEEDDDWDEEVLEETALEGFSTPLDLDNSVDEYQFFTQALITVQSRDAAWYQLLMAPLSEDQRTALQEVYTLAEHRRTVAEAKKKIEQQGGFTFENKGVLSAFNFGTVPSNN
UniProt Q8WYH8, whole entry, looked up: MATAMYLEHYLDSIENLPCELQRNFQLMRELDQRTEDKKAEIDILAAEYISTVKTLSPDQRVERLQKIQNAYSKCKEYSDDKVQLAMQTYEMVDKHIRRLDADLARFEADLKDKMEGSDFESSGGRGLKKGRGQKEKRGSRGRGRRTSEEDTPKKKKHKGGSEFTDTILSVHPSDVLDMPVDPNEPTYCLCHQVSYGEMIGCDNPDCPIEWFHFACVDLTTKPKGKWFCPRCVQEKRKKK
UniProt P15260: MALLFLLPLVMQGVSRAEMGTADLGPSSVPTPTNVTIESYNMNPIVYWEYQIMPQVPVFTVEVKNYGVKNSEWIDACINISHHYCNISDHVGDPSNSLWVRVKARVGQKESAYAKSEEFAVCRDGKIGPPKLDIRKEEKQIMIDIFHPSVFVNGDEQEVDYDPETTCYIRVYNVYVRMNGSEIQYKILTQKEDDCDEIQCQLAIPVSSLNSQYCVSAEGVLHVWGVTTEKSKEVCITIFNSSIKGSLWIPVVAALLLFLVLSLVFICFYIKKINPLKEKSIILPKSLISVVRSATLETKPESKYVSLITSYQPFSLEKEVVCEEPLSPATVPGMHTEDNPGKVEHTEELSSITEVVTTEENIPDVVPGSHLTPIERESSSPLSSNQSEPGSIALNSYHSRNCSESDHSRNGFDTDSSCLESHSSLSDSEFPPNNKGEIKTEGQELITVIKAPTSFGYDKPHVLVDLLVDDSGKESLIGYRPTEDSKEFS
UniProt P28290: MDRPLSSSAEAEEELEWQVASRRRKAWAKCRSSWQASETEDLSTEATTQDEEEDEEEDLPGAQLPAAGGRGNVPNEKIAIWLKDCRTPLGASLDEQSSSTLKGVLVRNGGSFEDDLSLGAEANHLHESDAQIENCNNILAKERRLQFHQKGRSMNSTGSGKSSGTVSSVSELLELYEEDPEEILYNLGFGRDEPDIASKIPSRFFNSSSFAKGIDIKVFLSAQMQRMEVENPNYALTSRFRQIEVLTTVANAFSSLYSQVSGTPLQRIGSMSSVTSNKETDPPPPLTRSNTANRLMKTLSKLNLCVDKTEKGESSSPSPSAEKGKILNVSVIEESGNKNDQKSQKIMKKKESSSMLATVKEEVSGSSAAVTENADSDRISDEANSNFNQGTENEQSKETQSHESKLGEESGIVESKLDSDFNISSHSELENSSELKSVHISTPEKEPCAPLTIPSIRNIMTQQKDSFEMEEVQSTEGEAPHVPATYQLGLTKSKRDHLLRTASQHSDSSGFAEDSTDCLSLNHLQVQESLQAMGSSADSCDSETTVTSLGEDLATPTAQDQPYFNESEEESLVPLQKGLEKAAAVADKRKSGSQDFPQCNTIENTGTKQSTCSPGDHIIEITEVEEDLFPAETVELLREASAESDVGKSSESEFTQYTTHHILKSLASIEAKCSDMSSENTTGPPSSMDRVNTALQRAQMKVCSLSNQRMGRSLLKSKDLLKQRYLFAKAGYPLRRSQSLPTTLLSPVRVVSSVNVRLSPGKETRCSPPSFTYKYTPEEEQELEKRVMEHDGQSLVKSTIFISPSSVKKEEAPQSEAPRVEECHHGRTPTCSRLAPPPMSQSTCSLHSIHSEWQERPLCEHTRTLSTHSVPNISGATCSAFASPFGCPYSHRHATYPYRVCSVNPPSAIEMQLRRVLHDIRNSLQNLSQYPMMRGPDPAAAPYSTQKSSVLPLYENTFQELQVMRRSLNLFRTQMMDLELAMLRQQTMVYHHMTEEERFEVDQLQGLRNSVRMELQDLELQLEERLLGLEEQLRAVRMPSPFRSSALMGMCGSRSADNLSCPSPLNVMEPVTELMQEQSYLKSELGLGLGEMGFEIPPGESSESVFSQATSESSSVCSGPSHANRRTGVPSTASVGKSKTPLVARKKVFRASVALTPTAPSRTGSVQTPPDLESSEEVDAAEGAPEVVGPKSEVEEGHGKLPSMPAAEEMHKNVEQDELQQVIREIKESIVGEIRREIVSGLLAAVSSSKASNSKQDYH
UniProt Q92551: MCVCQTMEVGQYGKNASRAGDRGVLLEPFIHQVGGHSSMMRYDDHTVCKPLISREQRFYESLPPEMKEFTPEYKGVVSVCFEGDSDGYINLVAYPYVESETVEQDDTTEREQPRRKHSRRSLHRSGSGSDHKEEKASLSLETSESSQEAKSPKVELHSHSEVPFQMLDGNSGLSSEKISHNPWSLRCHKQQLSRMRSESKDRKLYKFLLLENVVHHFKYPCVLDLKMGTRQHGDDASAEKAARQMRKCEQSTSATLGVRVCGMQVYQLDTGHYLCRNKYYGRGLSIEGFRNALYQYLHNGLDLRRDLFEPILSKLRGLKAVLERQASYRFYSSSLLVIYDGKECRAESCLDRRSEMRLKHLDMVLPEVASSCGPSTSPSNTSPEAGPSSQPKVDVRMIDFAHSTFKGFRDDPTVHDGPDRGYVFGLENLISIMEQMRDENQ
UniProt O14920: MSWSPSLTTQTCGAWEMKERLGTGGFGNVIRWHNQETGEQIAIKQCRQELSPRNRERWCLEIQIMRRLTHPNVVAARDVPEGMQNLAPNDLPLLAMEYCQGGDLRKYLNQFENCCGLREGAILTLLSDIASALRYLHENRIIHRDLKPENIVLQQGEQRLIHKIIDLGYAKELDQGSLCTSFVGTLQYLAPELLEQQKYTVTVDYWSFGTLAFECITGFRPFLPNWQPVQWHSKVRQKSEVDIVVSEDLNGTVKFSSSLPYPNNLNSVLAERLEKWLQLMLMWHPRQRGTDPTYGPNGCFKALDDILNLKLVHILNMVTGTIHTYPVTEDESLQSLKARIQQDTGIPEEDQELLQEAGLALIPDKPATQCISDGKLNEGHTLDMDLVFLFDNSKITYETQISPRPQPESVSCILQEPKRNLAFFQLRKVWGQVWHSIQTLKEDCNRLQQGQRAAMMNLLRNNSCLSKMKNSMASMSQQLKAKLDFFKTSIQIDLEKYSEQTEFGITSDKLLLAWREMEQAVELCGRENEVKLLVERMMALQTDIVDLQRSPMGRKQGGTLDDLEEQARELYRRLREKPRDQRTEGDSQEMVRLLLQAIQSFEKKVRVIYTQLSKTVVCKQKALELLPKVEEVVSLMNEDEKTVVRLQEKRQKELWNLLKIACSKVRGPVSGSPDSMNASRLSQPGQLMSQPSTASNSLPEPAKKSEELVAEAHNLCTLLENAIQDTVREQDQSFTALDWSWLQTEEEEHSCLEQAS

Tests used:
Test in all cases: log2 fold change, soluble protein after heating vs DMSO (PISA); higher = thermal stabilisation; K562 cells, 10 uM, 30 min; active = over 0.2 and 3.5 SD of the protein, either way, in both replicates (recomputed)
[1] = compound: COC1=CC=C(C=C1)CN2C=CC3=C2C=C(C=C3)C(=O)NO
Procedure, shortened: (§1)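 Soluble protein was defined as the supernatant after 21,000xg for 90 min. It came from K562 cells at 2×10^6 cells/mL given 10 μM compound for 30 min, heated in aliquots for 3 min across 48°C-58°C, pooled, and extracted in PBS with 0.5% NP-40 at 4°C, and was quantified by TMTpro 16plex LC-MS/MS with equalised channel sums. Thermal stability against control samples, from duplicates, is reported as log2 fold change.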

[2] = compound: CON(C)C(=O)N1N=C(c2cc(F)ccc2F)S[C@@]1(CCCN)c1ccccc1 [filanesib]
Procedure, shortened: as §1

[3] = compound: CO[C@H]1C[C@@H]2CC[C@@H](C)[C@@](O)(O2)C(=O)C(=O)N2CCCC[C@H]2C(=O)O[C@H]([C@H](C)C[C@@H]2CC[C@H](n3cnnn3)[C@H](OC)C2)CC(=O)[C@H](C)/C=C(\C)[C@@H](O)[C@@H](OC)C(=O)[C@H](C)C[C@H](C)/C=C/C=C/C=C/1C [zotarolimus]
Procedure, shortened: as §1

[4] = compound: COc1cc(Nc2ncc3c(n2)-c2ccc(Cl)cc2C(c2c(F)cccc2OC)=NC3)ccc1C(=O)O [alisertib]
Procedure, shortened: as §1

[5] = compound: COc1cc2ncnc(Nc3ccc(F)c(Cl)c3)c2cc1OCCCN1CCOCC1 [gefitinib]
Procedure, shortened: as §1

[6] = compound: COc1cccc2cc(-c3nc([C@H]4CC[C@H](C(=O)O)CC4)n4ncnc(N)c34)[nH]c12
Procedure, shortened: as §1

[7] = compound: CS(=O)(=O)N1CCN(Cc2cc3nc(-c4cccc5[nH]ncc45)nc(N4CCOCC4)c3s2)CC1 [pictilisib]
Procedure, shortened: as §1

[8] = compound: CS(=O)(=O)c1ccc(-c2cnc(N)c(C(=O)Nc3ccccc3)n2)cc1
Procedure, shortened: as §1

[9] = compound: C[C@@H](Oc1cc(-c2cnn(C3CCNCC3)c2)cnc1N)c1c(Cl)ccc(F)c1Cl [crizotinib]
Procedure, shortened: as §1

[10] = compound: C[C@@H]1COCCN1C2=NC(=NC(=C2)C3(CC3)S(=O)(=O)C)C4=C5C=CNC5=CC=C4
Procedure, shortened: as §1

[11] = compound: C[C@H](C1=CC=C(C=C1)C(=O)NC2=C3C=CNC3=NC=C2)N
Procedure, shortened: as §1

[12] = compound: C[C@H](Nc1ncnc2nc[nH]c12)c1cc2cccc(Cl)c2c(=O)n1-c1ccccc1 [duvelisib]
Procedure, shortened: as §1

[13] = compound: Cc1cc(Nc2cc(CN3CCOCC3)c3nc(C)c(Cc4ccc(Cl)cc4F)n3n2)n[nH]1 [gandotinib]
Procedure, shortened: as §1

[14] = compound: Cc1cc(Nc2cc(N3CCN(C)CC3)nc(Sc3ccc(NC(=O)C4CC4)cc3)n2)n[nH]1 [tozasertib]
Procedure, shortened: as §1

[15] = compound: Cc1cc(SCc2sc(-c3ccc(C(F)(F)F)cc3)nc2C)ccc1OCC(=O)O
Procedure, shortened: as §1

[16] = compound: Cc1ccc(-n2nc(C(C)(C)C)cc2NC(=O)Nc2ccc(OCCN3CCOCC3)c3ccccc23)cc1 [doramapimod]
Procedure, shortened: as §1

[17] = compound: Cc1ccc(C(=O)N(CCCN)[C@@H](c2nc3cc(Cl)ccc3c(=O)n2Cc2ccccc2)C(C)C)cc1 [ispinesib]
Procedure, shortened: as §1

[18] = compound: COc1cc2nc(-c3cc(F)ccc3O)nc(N[C@@H]3CNC[C@H]3C(C)(C)O)c2cc1OC
Procedure, shortened: as §1

[19] = compound: CS(=O)(=O)CCNCc1ccc(-c2ccc3ncnc(Nc4ccc(OCc5cccc(F)c5)c(Cl)c4)c3c2)o1 [lapatinib]
Procedure, shortened: as §1

[20] = compound: COc1cc(C(=O)O)ccc1NC(=O)[C@@H]1N[C@@H](CC(C)(C)C)[C@](C#N)(c2ccc(Cl)cc2F)[C@H]1c1cccc(Cl)c1F [idasanutlin]
Procedure, shortened: as §1

Target | log2 fold change [1] | log2 fold change [2] | log2 fold change [3] | log2 fold change [4] | log2 fold change [5] | log2 fold change [6] | log2 fold change [7] | log2 fold change [8] | log2 fold change [9] | log2 fold change [10] | log2 fold change [11] | log2 fold change [12] | log2 fold change [13] | log2 fold change [14] | log2 fold change [15] | log2 fold change [16] | log2 fold change [17] | log2 fold change [18] | log2 fold change [19] | log2 fold change [20]
INPP5K (UniProt Q9BT40) | inactive: -0.041 | inactive: -0.248 | inactive: 0.032 | inactive: -0.13 | inactive: 0.111 | inactive: 0.135 | inactive: 0.08 | inactive: -0.104 | inactive: -0.276 | inactive: -0.072 | inactive: 0.08 | inactive: 0.226 | inactive: 0.043 | inactive: -0.177 | inactive: -0.145 | inactive: 0.133 | inactive: -0.088 | – | – | –
IKZF1 (UniProt R9R4D9) | inactive: -0.167 | – | inactive: -0.192 | – | – | – | inactive: 0.059 | – | inactive: 0.028 | – | inactive: -0.078 | – | inactive: 0.244 | – | inactive: -0.12 | inactive: 0.235 | – | inactive: 0.084 | inactive: 0.037 | –
IGSF8 (UniProt Q969P0) | inactive: -0.027 | – | inactive: 0.015 | inactive: -0.151 | – | inactive: 0.189 | inactive: 0.087 | – | inactive: 0.159 | inactive: 0.208 | inactive: 0.043 | inactive: -0.005 | inactive: 0.132 | inactive: -0.101 | inactive: 0.187 | inactive: -0.01 | inactive: -0.09 | inactive: 0.045 | inactive: 0.035 | inactive: 0.067
IPO8 (UniProt O15397) | inactive: 0.034 | inactive: 0.19 | inactive: 0.158 | – | – | – | – | inactive: 0.008 | inactive: -0.17 | inactive: -0.197 | inactive: 0.348 | inactive: -0.014 | – | inactive: 0.065 | inactive: 0.004 | inactive: 0.155 | inactive: -0.069 | inactive: -0.068 | inactive: 0.02 | inactive: 0.105
IGKC (UniProt P01834) | inactive: 0.489 | inactive: 0.641 | – | inactive: 0.434 | inactive: 0.07 | inactive: -0.111 | – | inactive: -0.002 | inactive: -0.51 | – | – | – | – | inactive: 0.469 | – | inactive: -0.781 | inactive: 1.34 | – | – | inactive: 0.211
ING5 (UniProt Q8WYH8) | inactive: 0.208 | – | inactive: 0.014 | inactive: 0.003 | – | inactive: 0.179 | – | – | inactive: -0.36 | – | inactive: -0.018 | – | – | – | – | inactive: -0.019 | – | inactive: 0.127 | inactive: -0.128 | –
IFNGR1 (UniProt P15260) | – | inactive: 0.091 | inactive: -0.067 | inactive: -0.09 | inactive: 0.097 | inactive: 0.143 | inactive: -0.085 | inactive: 0.135 | – | inactive: -0.1 | inactive: 0.068 | – | inactive: -0.053 | – | inactive: -0.162 | – | inactive: -0.041 | inactive: 0.207 | inactive: -0.058 | inactive: 0.105
ITPRID2 (UniProt P28290) | inactive: 0 | – | – | – | – | – | – | – | inactive: -0.201 | inactive: 0.229 | – | – | – | – | – | inactive: -0.056 | inactive: -0.035 | inactive: 0.141 | inactive: -0.141 | –
IP6K1 (UniProt Q92551) | – | inactive: 0.037 | inactive: 0.151 | inactive: 0.042 | – | inactive: 0.091 | inactive: 0.13 | inactive: 0.129 | – | inactive: -0.072 | inactive: 0.295 | – | inactive: -0.145 | – | inactive: 0.23 | – | inactive: -0.437 | active: 1.11 | inactive: 0.128 | inactive: -0.044
IKBKB (UniProt O14920) | inactive: 0.138 | inactive: 0.304 | inactive: 0.136 | inactive: -0.166 | inactive: -0.234 | inactive: 0.03 | – | inactive: 0.229 | inactive: -0.574 | inactive: -0.319 | inactive: 0.367 | inactive: -0.043 | – | inactive: 0.042 | inactive: 0.097 | inactive: 0.107 | inactive: -0.038 | inactive: 0.062 | inactive: 0.158 | –
